In patent US8987332B2, “Methods of treating inflammatory conditions” (The Regents of the University of California, priority 2009, dated 2015):
At least one compound was matched to its structure with a doubt left. Some entries share one result that the patent states for a list of compounds. Some compounds share one range, which may span the group rather than tell each member.

How the values were obtained:
mouse GPR120 = target: T1, mouse GPR120 (Mus musculus, UniProt Q7TMA4); test: GPR120-mediated SRE-luc reporter assay in HEK 293 cells; format: cell-based; settings: HEK 293 cells transfected with GPR120 and SRE-luc, 6 hr; read-out: EC50 of SRE-luc reporter activation
T1 construct: expressed in transfected cells; host or cells: HEK 293
T1 sequence (Q7TMA4 1-361): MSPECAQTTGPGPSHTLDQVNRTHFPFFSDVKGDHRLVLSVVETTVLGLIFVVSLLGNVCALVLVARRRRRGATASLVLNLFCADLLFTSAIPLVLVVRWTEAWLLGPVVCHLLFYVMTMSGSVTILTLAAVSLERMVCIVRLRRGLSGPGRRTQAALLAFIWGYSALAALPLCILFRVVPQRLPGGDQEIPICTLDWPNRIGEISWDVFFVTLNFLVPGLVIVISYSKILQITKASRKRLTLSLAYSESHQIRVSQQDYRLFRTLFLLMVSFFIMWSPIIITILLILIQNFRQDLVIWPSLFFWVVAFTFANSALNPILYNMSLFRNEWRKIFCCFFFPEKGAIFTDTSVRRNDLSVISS

3T3-L1 adipocytes = test: Akt and IRS-1 phosphorylation in 3T3-L1 adipocytes (western blotting); format: cell-based; settings: 50 μM for 30 min before DHA (100 μM)
Method: FIG. 10, related to FIG. 4. DHA activates Akt phosphorylation in a GPR120-dependent manner. (A) Differentiated 3T3-L1 adipocytes were transfected with scrambled or GPR120 siRNA and then 48 hr after siRNA transfection, cells were treated with 100 μM of DHA 30 min prior to insulin (3 ng/ml) treatment for 7 min followed by western blotting with phosphorylated Akt (S473) antibody. […] Data are expressed as the mean±SEM of three independent experiments. *, p<0.05 versus basal. (B) Cells were treated with the PI3K inhibitor LY294002 (50 μM) for 30 min before DHA (100 μM) or insulin (3 ng/ml) treatment. (C) Phosphorylation of IRS-1 was detected after DHA or insulin treatment of 3T3-L1 adipocytes. (D) Schematic diagram of GPR120-mediated Akt activation in 3T3-L1 adipocytes.
Proteins from tissues or cell lysates were extracted with radioimmune precipitation buffer in the presence of phosphatase inhibitors and protease inhibitors (Roche Applied Science). […] of proteins/lane were separated on a 10% polyacrylamide, precast SDS gel (Bio-Rad) followed by transfer on polyvinylidene difluoride membrane (Immobilon, Millipore), and western blotting was performed as described (Nguyen et al., 2005) with indicated antibodies. […]

SMILES | EC50 (mouse GPR120) [µM] | effect on DHA-stimulated Akt (3T3-L1 adipocytes)
CC/C=C\C/C=C\C/C=C\C/C=C\C/C=C\C/C=C\CCC(=O)O [DHA] | 1 to 10 | 
CC/C=C\C/C=C\C/C=C\C/C=C\C/C=C\CCCC(=O)O [EPA] | 1 to 10 | 
O=c1cc(N2CCOCC2)oc2c(-c3ccccc3)cccc12 [LY294002, reference compound] |  | blocked
CCCCCC/C=C\CCCCCCCC(=O)O [palmitoleate] | 1 to 10 | 
